Assay results from article PMC12643979.
These are yes or no findings as the source states them, for the method shown. Binding seen in cells or lysates may run through a third protein. A yes stands for co-enrichment or nearness to the bait. Other partners may have been found. Where a sequence is shown, tags or fusion partners need not be part of it.

Biological target: T1, GFP-tagged TBC1D9 WT (human) (UniProt Q6ZT07)
T1 sequence: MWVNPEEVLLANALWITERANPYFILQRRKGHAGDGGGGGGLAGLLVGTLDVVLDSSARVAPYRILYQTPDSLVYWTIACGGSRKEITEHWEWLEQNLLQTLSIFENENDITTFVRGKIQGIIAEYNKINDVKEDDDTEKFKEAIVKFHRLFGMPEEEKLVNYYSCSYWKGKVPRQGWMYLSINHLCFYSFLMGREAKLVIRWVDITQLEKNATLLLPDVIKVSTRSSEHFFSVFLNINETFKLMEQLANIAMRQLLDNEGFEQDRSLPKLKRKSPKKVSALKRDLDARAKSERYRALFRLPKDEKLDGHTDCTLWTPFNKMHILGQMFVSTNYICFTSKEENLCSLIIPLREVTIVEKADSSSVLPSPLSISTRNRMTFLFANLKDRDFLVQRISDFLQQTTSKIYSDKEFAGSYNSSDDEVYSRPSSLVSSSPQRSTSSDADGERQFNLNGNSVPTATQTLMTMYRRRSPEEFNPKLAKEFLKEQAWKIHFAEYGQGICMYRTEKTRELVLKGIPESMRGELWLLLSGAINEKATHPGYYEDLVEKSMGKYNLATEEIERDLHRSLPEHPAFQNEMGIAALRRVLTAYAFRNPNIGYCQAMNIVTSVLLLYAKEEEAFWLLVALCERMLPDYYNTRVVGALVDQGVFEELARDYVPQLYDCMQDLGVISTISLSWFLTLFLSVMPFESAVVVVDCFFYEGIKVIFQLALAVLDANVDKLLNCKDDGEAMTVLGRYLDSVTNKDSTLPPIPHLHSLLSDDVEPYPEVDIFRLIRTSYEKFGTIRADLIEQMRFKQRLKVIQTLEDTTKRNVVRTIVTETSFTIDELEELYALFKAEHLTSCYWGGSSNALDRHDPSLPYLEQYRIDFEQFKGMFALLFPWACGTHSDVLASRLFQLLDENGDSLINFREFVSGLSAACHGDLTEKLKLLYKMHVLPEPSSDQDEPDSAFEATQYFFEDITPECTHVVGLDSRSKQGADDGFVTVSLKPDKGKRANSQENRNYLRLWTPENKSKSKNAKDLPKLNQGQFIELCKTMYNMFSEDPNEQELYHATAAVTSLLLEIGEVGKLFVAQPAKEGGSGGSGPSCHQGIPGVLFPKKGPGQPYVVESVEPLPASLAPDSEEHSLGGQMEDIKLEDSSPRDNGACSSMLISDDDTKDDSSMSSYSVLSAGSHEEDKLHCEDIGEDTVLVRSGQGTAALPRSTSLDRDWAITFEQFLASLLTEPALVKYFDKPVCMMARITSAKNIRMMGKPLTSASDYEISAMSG
Assay: affinity purification with mass spectrometry; HEK293T cells transfected with GFP, GFP-TBC1D9 or GFP-TBC1D9 R566K, 48 h, basal conditions; lysates precipitated with GFP-Trap beads; LC-MS/MS (Q-Exactive)

binding: binds
B1: Rab29 (protein, UniProt O14966 1-203)
chain: MGSRDHLFKVLVVGDAAVGKTSLVQRYSQDSFSKHYKSTVGVDFALKVLQWSDYEIVRLQLWDIAGQERFTSMTRLYYRDASACVIMFDVTNATTFSNSQRWKQDLDSKLTLPNGEPVPCLLLANKCDLSPWAVSRDQIDRFSKENGFTGWTETSVKENKNINEAMRVLIEKMMRNSTEDIMSLSTQGDYINLQTKSSSWSCC
